The list does not hold the whole screen: it gathers tests that were run many times, whatever their T/C, doses with no T/C, and many T/C values between a quarter and a half above the control. Further doses and runs are listed elsewhere. T/C: endpoint of the treated group in % of that of the vehicle group. Some entries give survivors of the animals treated and no T/C: the source holds a T/C of zero for them, seemingly a mark for toxic or unscored doses. Some doses without a T/C left all or most animals alive at the check, yet need not have been tolerated: survival well below the control is almost never listed, so the zero probably covers shortened survival too. Survivors were counted at the toxicity check, usually on the fifth day, unless a day is given; later deaths do not show. Schedules are NCI's codes, read here as Q, the interval in days (D) or hours (H), X, the number of doses. For survival time, the PubChem record calls one and a half times the control and up active, and a quarter to a half above the control has no call in these data; cut-offs in other NCI protocols can differ. Some T/C values are followed by the survivors on the day toxicity was checked, most often the fifth; without a count, all were alive then. Some entries were tested several times; the values are given in rising order. Marks such as (2×) say how often a value occurs here.
Test system: L1210 leukemia ip in BDF1 mice, survival T/C
Assay: NCI In Vivo Anticancer Drug Screen. Data for tumor model L1210 Leukemia (intraperitoneal) in B6D2F1 (BDF1) mice
Details: higher T/C = longer survival

## O=c1[nH]c(=O)n([C@H]2CCCO2)cc1F
T/C endpoint: mean survival time, dose: 80.0 mg/kg/injection, schedule: Q01DX009 (ip), vehicle: saline
  T/C: 130 % of control
T/C endpoint: mean survival time, dose: 83.9 mg/kg/injection, schedule: Q01DX012 (sc), vehicle: clinical formulation
  T/C: 138 % of control
T/C endpoint: mean survival time, dose: 108.0 mg/kg/injection, schedule: Q01DX009 (ip), vehicle: saline
  T/C: 144 % of control
T/C endpoint: mean survival time, dose: 131.0 mg/kg/injection, schedule: Q01DX005 (sc), vehicle: clinical formulation
  T/C: 139 % of control
T/C endpoint: mean survival time, dose: 131.0 mg/kg/injection, schedule: Q01DX012 (sc), vehicle: clinical formulation
  T/C: 133 % of control
T/C endpoint: mean survival time, dose: 160.0 mg/kg/injection, schedule: Q01DX009 (ip), vehicle: saline
  T/C: 149 % of control
T/C endpoint: mean survival time, dose: 180.0 mg/kg/injection, schedule: Q01DX009 (ip), vehicle: Klucel (hydroxypropylcellulose) (HPC)
  T/C: 141 % of control
T/C endpoint: mean survival time, dose: 180.0 mg/kg/injection, schedule: Q01DX009 (ip), vehicle: saline
  T/C: 132 % of control
T/C endpoint: mean survival time, dose: 180.0 mg/kg/injection, schedule: Q04DX003 (ip), vehicle: Klucel (hydroxypropylcellulose) (HPC)
  T/C: 125 % of control
T/C endpoint: mean survival time, dose: 200.0 mg/kg/injection, schedule: Q01DX009 (ip), vehicle: saline
  T/C: 138 % of control
T/C endpoint: mean survival time, dose: 200.0 mg/kg/injection, schedule: Q04DX003 (ip), vehicle: saline
  T/C: 127 and 134 % of control
T/C endpoint: mean survival time, dose: 205.0 mg/kg/injection, schedule: Q01DX002 (sc), vehicle: clinical formulation
  T/C: 127 % of control
T/C endpoint: mean survival time, dose: 225.0 mg/kg/injection, schedule: Q04DX003 (ip), vehicle: saline with Tween-80
  T/C: 131 % of control
T/C endpoint: mean survival time, dose: 300.0 mg/kg/injection, schedule: Q04DX003 (ip), vehicle: saline with Tween-80
  T/C: 140 % of control
T/C endpoint: mean survival time, dose: 320.0 mg/kg/injection, schedule: Q01DX002 (sc), vehicle: clinical formulation
  T/C: 146 % of control
T/C endpoint: mean survival time, dose: 320.0 mg/kg/injection, schedule: Q01DX009 (ip), vehicle: saline
  T/C: 136 % of control
T/C endpoint: mean survival time, dose: 363.0 mg/kg/injection, schedule: Q01DX001 (ip), vehicle: other
  T/C: 135 % of control
T/C endpoint: mean survival time, dose: 363.0 mg/kg/injection, schedule: Q01DX001 (sc), vehicle: other
  T/C: 128 and 135 % of control
T/C endpoint: mean survival time, dose: 400.0 mg/kg/injection, schedule: Q01DX002 (sc), vehicle: clinical formulation
  T/C: 130 % of control
T/C endpoint: mean survival time, dose: 400.0 mg/kg/injection, schedule: Q04DX002 (sc), vehicle: clinical formulation
  T/C: 137 % of control
T/C endpoint: mean survival time, dose: 400.0 mg/kg/injection, schedule: Q04DX003 (ip), vehicle: saline
  T/C: 133 % of control
T/C endpoint: mean survival time, dose: 400.0 mg/kg/injection, schedule: Q10DX002 (sc), vehicle: clinical formulation
  T/C: 138 % of control
T/C endpoint: mean survival time, dose: 450.0 mg/kg/injection, schedule: Q04DX003 (ip), vehicle: saline with Tween-80
  T/C: 145 % of control
T/C endpoint: mean survival time, dose: 490.0 mg/kg/injection, schedule: Q01DX001 (ip), vehicle: other
  T/C: 128 % of control
T/C endpoint: mean survival time, dose: 490.0 mg/kg/injection, schedule: Q01DX001 (sc), vehicle: other
  T/C: 126 and 135 % of control
T/C endpoint: mean survival time, dose: 500.0 mg/kg/injection, schedule: Q04DX002 (sc), vehicle: clinical formulation
  T/C: 138 % of control
T/C endpoint: mean survival time, dose: 625.0 mg/kg/injection, schedule: Q01DX001 (sc), vehicle: clinical formulation
  T/C: 138 % of control
T/C endpoint: mean survival time, dose: 625.0 mg/kg/injection, schedule: Q04DX002 (sc), vehicle: clinical formulation
  T/C: 129 % of control
T/C endpoint: mean survival time, dose: 625.0 mg/kg/injection, schedule: Q10DX002 (sc), vehicle: clinical formulation
  T/C: 135 % of control
T/C endpoint: mean survival time, dose: 640.0 mg/kg/injection, schedule: Q01DX009 (oral), vehicle: saline
  survivor count: 6 of 6
T/C endpoint: mean survival time, dose: 700.0 mg/kg/injection, schedule: Q01DX001 (ip), vehicle: other
  survivor count: 6 of 6
T/C endpoint: mean survival time, dose: 781.0 mg/kg/injection, schedule: Q01DX001 (sc), vehicle: clinical formulation
  T/C: 135 % of control
T/C endpoint: mean survival time, dose: 833.0 mg/kg/injection, schedule: Q01DX001 (ip), vehicle: Klucel (hydroxypropylcellulose) (HPC)
  T/C: 130 % of control [7 of 8 alive]
T/C endpoint: mean survival time, dose: 977.0 mg/kg/injection, schedule: Q10DX002 (sc), vehicle: clinical formulation
  T/C: 144 % of control
T/C endpoint: mean survival time, dose: 1000.0 mg/kg/injection, schedule: Q01DX001 (ip), vehicle: other
  survivor count: 6 of 6
T/C endpoint: mean survival time, dose: 1000.0 mg/kg/injection, schedule: Q01DX001 (sc), vehicle: other
  survivor count: 6 of 6
T/C endpoint: mean survival time, dose: 1280.0 mg/kg/injection, schedule: Q01DX009 (oral), vehicle: saline
  survivor count: 1 of 6
T/C endpoint: mean survival time, dose: 1428.0 mg/kg/injection, schedule: Q01DX001 (ip), vehicle: other
  survivor count: 6 of 6
T/C endpoint: mean survival time, dose: 1428.0 mg/kg/injection, schedule: Q01DX001 (sc), vehicle: other
  survivor count: 6 of 6
T/C endpoint: median survival time, dose: 39.0 mg/kg/injection, schedule: Q01DX009 (ip), vehicle: other
  T/C: 142 % of control
T/C endpoint: median survival time, dose: 39.0 mg/kg/injection, schedule: Q03HX008 (ip), vehicle: other
  T/C: 141 % of control
T/C endpoint: median survival time, dose: 65.0 mg/kg/injection, schedule: Q03HX008 (ip), vehicle: other
  T/C: 137 % of control
T/C endpoint: median survival time, dose: 75.0 mg/kg/injection, schedule: Q04DX003 (ip), vehicle: Klucel (hydroxypropylcellulose) (HPC), evaluated on day 5
  T/C: 96 and 101 % of control
T/C endpoint: median survival time, dose: 75.0 mg/kg/injection, schedule: Q04DX003 (ip), vehicle: Klucel (hydroxypropylcellulose) (HPC), evaluated on day 30
  T/C: 96 and 101 % of control
T/C endpoint: median survival time, dose: 75.0 mg/kg/injection, schedule: Q04DX003 (ip), vehicle: other, evaluated on day 5
  T/C: 101, 103, 107 % of control
T/C endpoint: median survival time, dose: 75.0 mg/kg/injection, schedule: Q04DX003 (ip), vehicle: other, evaluated on day 30
  T/C: 100, 103, 107 % of control
T/C endpoint: median survival time, dose: 108.0 mg/kg/injection, schedule: Q01DX009 (ip), vehicle: other
  T/C: 134 % of control
T/C endpoint: median survival time, dose: 150.0 mg/kg/injection, schedule: Q04DX003 (ip), vehicle: Klucel (hydroxypropylcellulose) (HPC), evaluated on day 5
  T/C: 104 and 108 % of control
T/C endpoint: median survival time, dose: 150.0 mg/kg/injection, schedule: Q04DX003 (ip), vehicle: Klucel (hydroxypropylcellulose) (HPC), evaluated on day 30
  T/C: 104 and 108 % of control
T/C endpoint: median survival time, dose: 150.0 mg/kg/injection, schedule: Q04DX003 (ip), vehicle: other, evaluated on day 5
  T/C: 109, 114, 124 % of control
T/C endpoint: median survival time, dose: 150.0 mg/kg/injection, schedule: Q04DX003 (ip), vehicle: other, evaluated on day 30
  T/C: 111, 114, 124 % of control
T/C endpoint: median survival time, dose: 180.0 mg/kg/injection, schedule: Q04DX003 (oral), vehicle: other
  T/C: 126 % of control
T/C endpoint: median survival time, dose: 300.0 mg/kg/injection, schedule: Q01DX001 (ip), vehicle: other
  T/C: 126 % of control [7 of 8 alive]
T/C endpoint: median survival time, dose: 300.0 mg/kg/injection, schedule: Q04DX003 (ip), vehicle: Klucel (hydroxypropylcellulose) (HPC), evaluated on day 5
  T/C: 102 and 150 % of control
T/C endpoint: median survival time, dose: 300.0 mg/kg/injection, schedule: Q04DX003 (ip), vehicle: Klucel (hydroxypropylcellulose) (HPC), evaluated on day 30
  T/C: 102 and 150 % of control
T/C endpoint: median survival time, dose: 300.0 mg/kg/injection, schedule: Q04DX003 (ip), vehicle: other, evaluated on day 5
  T/C: 133, 152, 156 % of control
T/C endpoint: median survival time, dose: 300.0 mg/kg/injection, schedule: Q04DX003 (ip), vehicle: other, evaluated on day 30
  T/C: 133, 140, 152 (2×), 156 % of control
T/C endpoint: median survival time, dose: 300.0 mg/kg/injection, schedule: Q04DX003 (ip), vehicle: water, evaluated on day 5
  T/C: 139 % of control
T/C endpoint: median survival time, dose: 300.0 mg/kg/injection, schedule: Q04DX003 (ip), vehicle: water, evaluated on day 30
  T/C: 139 % of control
T/C endpoint: median survival time, dose: 300.0 mg/kg/injection, schedule: Q04DX003 (sc), vehicle: other
  T/C: 149 % of control
T/C endpoint: median survival time, dose: 500.0 mg/kg/injection, schedule: Q01DX001 (ip), vehicle: other
  T/C: 141 % of control
T/C endpoint: median survival time, dose: 500.0 mg/kg/injection, schedule: Q04DX003 (ip), vehicle: other
  T/C: 125 % of control
T/C endpoint: median survival time, dose: 600.0 mg/kg/injection, schedule: Q04DX003 (ip), vehicle: Klucel (hydroxypropylcellulose) (HPC), evaluated on day 5
  T/C: 97 and 148 % of control
T/C endpoint: median survival time, dose: 600.0 mg/kg/injection, schedule: Q04DX003 (ip), vehicle: Klucel (hydroxypropylcellulose) (HPC), evaluated on day 30
  T/C: 97 and 148 % of control
T/C endpoint: median survival time, dose: 600.0 mg/kg/injection, schedule: Q04DX003 (ip), vehicle: other, evaluated on day 5
  T/C: 104, 138, 155 % of control
T/C endpoint: median survival time, dose: 600.0 mg/kg/injection, schedule: Q04DX003 (ip), vehicle: other, evaluated on day 30
  T/C: 104, 138, 155 % of control
T/C endpoint: median survival time, dose: 600.0 mg/kg/injection, schedule: Q04DX003 (ip), vehicle: water, evaluated on day 5
  T/C: 129 % of control
T/C endpoint: median survival time, dose: 600.0 mg/kg/injection, schedule: Q04DX003 (ip), vehicle: water, evaluated on day 30
  T/C: 129 % of control
T/C endpoint: median survival time, dose: 833.0 mg/kg/injection, schedule: Q01DX001 (ip), vehicle: other
  T/C: 141 % of control
T/C endpoint: median survival time, dose: 833.0 mg/kg/injection, schedule: Q04DX003 (ip), vehicle: other
  survivor count: 8 of 8
T/C endpoint: median survival time, dose: 1200.0 mg/kg/injection, schedule: Q04DX003 (ip), vehicle: Klucel (hydroxypropylcellulose) (HPC), evaluated on day 5
  T/C: 75 and 125 % of control
T/C endpoint: median survival time, dose: 1200.0 mg/kg/injection, schedule: Q04DX003 (ip), vehicle: Klucel (hydroxypropylcellulose) (HPC), evaluated on day 30
  T/C: 125 % of control
T/C endpoint: median survival time, dose: 1200.0 mg/kg/injection, schedule: Q04DX003 (ip), vehicle: Klucel (hydroxypropylcellulose) (HPC)
  survivor count: 5 of 8
T/C endpoint: median survival time, dose: 1200.0 mg/kg/injection, schedule: Q04DX003 (ip), vehicle: other, evaluated on day 5
  T/C: 91, 105, 160 % of control
T/C endpoint: median survival time, dose: 1200.0 mg/kg/injection, schedule: Q04DX003 (ip), vehicle: other, evaluated on day 30
  T/C: 91 [7 of 8 alive], 105, 161 % of control

Source: PubChem BioAssay AID248 (DTP/NCI, 2004)
